Laboratory results reported in the supplement of paper PMC11006884.
The entries are a selection whose mix differs from that of the whole data set.

Chains of the proteins cited; added tags and fusions are not shown. Lines headed by an entry give the natural chain unless they say otherwise; changes in a name come on top.
UniProt P31150: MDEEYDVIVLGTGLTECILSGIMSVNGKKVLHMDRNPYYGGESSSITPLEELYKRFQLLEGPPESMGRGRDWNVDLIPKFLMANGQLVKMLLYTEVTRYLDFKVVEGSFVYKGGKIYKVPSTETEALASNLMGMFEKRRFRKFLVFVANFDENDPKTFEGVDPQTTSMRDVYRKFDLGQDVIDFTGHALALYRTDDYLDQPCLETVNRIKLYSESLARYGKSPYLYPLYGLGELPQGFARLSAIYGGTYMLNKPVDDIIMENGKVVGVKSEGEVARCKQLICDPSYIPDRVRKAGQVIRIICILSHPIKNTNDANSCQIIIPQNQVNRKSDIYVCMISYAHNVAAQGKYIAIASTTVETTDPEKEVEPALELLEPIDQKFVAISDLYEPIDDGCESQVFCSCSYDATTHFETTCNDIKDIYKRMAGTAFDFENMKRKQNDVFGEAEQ
UniProt P31040: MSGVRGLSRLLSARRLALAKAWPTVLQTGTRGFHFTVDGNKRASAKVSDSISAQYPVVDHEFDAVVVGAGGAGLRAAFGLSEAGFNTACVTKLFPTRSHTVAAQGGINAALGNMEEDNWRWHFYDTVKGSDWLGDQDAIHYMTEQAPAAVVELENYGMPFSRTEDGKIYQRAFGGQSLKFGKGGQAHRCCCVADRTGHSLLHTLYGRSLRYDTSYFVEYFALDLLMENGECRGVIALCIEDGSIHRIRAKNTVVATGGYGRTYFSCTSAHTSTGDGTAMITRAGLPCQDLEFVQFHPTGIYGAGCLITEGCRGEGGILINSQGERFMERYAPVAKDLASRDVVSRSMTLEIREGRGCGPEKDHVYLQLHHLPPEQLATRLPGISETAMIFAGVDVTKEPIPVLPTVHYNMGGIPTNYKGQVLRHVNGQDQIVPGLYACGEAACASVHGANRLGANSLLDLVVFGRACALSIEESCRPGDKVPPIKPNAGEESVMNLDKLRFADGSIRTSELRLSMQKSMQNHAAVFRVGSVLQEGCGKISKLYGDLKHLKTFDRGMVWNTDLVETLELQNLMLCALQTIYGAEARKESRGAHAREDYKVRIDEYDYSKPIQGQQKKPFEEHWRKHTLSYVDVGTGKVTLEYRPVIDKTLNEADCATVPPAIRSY
UniProt P31930: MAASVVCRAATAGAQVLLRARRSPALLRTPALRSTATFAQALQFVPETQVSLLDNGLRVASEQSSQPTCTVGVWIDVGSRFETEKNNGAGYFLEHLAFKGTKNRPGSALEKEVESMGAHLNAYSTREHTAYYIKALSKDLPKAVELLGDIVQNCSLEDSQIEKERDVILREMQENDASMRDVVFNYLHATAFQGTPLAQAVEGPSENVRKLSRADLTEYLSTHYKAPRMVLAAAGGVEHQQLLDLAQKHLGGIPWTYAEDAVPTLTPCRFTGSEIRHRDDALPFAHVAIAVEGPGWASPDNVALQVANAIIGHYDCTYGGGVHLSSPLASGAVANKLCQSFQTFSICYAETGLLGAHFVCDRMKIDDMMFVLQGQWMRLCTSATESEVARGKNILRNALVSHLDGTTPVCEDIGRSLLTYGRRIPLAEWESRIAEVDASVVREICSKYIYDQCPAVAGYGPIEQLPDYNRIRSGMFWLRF
UniProt P35579, whole entry, looked up: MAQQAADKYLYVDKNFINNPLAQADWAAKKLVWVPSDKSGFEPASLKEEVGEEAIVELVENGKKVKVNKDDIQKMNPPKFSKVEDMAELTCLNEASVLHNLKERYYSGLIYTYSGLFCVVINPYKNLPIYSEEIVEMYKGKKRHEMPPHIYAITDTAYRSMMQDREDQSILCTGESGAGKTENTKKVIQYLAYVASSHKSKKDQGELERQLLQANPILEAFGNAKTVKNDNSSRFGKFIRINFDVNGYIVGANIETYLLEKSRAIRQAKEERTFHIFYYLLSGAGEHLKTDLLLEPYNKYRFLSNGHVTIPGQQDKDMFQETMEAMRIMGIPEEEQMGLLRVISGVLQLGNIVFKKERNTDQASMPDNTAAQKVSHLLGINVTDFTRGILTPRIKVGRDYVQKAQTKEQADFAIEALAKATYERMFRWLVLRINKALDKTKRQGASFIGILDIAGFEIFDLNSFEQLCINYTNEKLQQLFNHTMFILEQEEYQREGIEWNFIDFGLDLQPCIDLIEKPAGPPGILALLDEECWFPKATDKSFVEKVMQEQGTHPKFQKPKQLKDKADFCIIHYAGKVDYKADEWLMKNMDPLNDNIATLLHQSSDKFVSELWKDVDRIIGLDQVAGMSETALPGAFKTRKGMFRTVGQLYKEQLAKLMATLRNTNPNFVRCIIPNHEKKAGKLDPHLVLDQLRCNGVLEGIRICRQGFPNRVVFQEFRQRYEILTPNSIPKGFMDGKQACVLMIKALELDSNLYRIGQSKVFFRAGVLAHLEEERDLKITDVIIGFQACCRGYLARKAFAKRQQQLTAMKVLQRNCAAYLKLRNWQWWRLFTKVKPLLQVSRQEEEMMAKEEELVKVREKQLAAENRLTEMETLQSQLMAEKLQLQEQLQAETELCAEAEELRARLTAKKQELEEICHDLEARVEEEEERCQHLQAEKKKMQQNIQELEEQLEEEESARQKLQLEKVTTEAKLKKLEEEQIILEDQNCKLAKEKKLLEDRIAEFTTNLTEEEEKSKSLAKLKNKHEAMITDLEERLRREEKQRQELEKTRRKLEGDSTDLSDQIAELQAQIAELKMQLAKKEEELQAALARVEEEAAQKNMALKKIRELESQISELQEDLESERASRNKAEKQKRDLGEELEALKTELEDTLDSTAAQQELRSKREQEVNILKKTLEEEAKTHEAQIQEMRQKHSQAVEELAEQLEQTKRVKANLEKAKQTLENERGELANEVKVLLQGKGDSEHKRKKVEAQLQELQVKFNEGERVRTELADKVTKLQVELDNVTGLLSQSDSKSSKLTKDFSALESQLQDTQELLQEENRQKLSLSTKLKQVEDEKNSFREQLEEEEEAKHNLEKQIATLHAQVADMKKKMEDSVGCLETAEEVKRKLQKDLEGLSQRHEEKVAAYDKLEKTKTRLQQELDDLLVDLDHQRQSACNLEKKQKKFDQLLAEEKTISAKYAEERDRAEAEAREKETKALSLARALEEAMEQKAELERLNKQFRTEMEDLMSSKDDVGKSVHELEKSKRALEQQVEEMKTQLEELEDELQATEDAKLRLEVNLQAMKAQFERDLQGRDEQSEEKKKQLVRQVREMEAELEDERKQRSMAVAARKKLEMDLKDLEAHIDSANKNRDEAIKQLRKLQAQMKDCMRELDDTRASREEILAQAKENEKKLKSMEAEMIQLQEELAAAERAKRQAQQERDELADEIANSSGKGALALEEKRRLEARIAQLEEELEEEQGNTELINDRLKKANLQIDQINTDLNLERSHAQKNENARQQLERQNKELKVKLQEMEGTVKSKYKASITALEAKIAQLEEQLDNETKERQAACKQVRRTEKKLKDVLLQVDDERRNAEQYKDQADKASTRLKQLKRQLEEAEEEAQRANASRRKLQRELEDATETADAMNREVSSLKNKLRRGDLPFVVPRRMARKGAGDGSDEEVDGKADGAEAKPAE
UniProt P35637: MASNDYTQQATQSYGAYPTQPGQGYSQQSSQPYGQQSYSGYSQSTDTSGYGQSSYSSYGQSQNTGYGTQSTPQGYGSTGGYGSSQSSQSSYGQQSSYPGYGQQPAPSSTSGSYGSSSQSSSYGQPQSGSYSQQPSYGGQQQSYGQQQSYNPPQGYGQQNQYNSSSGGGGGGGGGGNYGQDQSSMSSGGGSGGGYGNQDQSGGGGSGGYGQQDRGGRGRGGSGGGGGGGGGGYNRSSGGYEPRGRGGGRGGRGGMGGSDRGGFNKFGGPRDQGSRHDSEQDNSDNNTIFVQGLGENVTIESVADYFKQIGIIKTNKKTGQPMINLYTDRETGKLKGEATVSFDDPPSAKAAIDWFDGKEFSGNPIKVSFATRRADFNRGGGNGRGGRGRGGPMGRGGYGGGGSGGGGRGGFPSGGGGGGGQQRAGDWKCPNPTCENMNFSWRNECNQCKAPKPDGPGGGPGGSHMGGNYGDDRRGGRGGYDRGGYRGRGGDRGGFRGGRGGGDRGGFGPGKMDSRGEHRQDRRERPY
UniProt P40222: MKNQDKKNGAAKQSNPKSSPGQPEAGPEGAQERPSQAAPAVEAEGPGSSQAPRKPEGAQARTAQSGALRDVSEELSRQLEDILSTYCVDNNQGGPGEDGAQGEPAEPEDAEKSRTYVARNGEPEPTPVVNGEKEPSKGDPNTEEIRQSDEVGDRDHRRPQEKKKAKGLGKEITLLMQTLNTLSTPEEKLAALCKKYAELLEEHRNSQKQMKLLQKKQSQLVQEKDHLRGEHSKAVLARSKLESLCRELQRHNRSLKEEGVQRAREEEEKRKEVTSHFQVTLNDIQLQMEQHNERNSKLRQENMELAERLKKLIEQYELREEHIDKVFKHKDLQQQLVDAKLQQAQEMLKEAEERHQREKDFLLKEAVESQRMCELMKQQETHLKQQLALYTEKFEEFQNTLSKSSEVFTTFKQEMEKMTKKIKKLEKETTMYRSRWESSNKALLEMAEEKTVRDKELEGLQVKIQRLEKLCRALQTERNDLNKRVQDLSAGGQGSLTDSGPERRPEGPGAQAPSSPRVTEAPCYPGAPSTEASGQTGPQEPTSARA
UniProt P31943: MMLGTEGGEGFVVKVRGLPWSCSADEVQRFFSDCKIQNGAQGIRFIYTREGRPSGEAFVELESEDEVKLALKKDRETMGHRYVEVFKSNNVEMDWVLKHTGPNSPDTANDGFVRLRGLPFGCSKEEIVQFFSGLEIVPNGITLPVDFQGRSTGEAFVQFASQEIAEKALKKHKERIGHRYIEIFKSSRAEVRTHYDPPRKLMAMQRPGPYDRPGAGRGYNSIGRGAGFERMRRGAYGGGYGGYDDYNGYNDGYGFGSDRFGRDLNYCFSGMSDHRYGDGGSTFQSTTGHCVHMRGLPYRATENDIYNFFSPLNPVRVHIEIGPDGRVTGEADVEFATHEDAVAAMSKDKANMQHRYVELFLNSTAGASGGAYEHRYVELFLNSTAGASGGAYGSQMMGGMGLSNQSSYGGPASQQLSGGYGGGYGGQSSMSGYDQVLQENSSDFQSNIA
UniProt P41252: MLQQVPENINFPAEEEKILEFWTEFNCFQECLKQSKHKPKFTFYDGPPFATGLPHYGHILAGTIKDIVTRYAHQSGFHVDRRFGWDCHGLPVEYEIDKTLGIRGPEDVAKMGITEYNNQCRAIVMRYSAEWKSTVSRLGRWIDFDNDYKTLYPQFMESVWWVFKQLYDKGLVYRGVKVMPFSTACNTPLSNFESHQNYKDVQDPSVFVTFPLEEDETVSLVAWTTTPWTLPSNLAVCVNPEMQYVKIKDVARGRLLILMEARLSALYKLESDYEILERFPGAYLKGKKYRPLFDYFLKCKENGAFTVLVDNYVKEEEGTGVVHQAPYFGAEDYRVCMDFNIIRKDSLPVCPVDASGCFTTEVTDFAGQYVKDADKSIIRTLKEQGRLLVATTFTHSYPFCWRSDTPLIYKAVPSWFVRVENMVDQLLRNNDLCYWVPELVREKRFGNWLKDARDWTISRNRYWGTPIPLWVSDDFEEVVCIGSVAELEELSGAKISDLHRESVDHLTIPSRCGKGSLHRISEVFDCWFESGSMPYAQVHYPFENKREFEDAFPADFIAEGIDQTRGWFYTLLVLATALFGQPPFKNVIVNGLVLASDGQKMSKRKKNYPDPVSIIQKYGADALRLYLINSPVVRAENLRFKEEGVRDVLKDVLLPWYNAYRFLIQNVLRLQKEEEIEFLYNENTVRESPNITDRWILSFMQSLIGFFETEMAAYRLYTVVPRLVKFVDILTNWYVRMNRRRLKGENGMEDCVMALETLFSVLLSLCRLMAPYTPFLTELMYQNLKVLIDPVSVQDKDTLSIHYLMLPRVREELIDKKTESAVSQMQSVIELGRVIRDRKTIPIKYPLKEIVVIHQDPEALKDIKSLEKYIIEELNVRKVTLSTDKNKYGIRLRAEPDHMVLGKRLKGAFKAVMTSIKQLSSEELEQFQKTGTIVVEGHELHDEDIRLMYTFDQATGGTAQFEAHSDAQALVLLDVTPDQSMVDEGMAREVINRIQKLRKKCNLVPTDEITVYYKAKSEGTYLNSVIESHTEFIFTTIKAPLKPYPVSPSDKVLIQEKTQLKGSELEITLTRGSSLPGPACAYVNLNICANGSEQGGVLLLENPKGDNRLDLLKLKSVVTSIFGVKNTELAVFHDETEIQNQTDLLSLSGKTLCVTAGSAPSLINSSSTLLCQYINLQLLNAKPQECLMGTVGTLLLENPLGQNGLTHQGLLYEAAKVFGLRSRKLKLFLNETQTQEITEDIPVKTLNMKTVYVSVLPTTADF

These targets were tested with COC(=O)C#Cc1ccccc1 [methyl 3-phenylpropiolate] (assay: log2 ratio of iodoacetamide-alkyne labeling of the cysteine site, DMSO over compound (competition); higher = stronger covalent engagement of the cysteine by the compound, active = 1 or more). Conditions: 500 µM; treatment time 1 h; system: HEK293T cell lysate.
Summary of the method: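 After 1 h at ambient temperature with vehicle or electrophile (500 µM), HEK293T lysate (2 mg/mL) was labelled for 1 h with iodoacetamide alkyne and clicked to sCIP-TMT reagents. Pooled samples were trypsin-digested overnight at 37 °C, streptavidin-enriched, acid-eluted and analysed by Orbitrap Eclipse LC-MS/MS with FAIMS, then quantified in FragPipe over three replicates with duplicate channels. A cysteine's log2 competition ratio is its mean control-channel over mean compound-channel reporter intensity. Cysteines quantified in only one replicate were not included.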

log2 ratio of iodoacetamide-alkyne labeling, inactive:
GDI1 C302 (UniProt P31150) 0.35
LRPPRC C330 (UniProt P42704) 0.136
AKT2 C124 (UniProt P31751) 0.434
SDHA C89 (UniProt P31040) -0.0333
UQCRC1 C410 (UniProt P31930) 0.0827
UQCRC1 C453 (UniProt P31930) 0.217
MYH9 C988 (UniProt P35579) -0.0255
FUS C428 (UniProt P35637) -0.0568
CASP3 C170 (UniProt P42574) 0.259
AKT2 C297 (UniProt P31751) 0.698
TXLNA C523 (UniProt P40222) -0.0161
PPP1CC C105 (UniProt P36873) 0.33
HNRNPH1 C22 (UniProt P31943) -0.0537
SERPINB6 C350 (UniProt P35237) 0.174
IARS C433 (UniProt P41252) -0.0103

Reprinted at random: 2 records from the list
log2 ratio of iodoacetamide-alkyne labeling, inactive:
FUS C428 (UniProt P35637) -0.0568
MYH9 C988 (UniProt P35579) -0.0255
